According to the supplement of paper PMC12823440, “Inhibitors supercharge kinase turnover through native proteolytic circuits” (Nature, 2025):
Where a name gives a salt, the structure may show the parent alone. The list shows a part of the results. The calls rarely recur for the same compound in another form.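 Kinases were expressed as nanoluciferase fusions in K562 cells and luminescence was read every 4 h between 2 and 18 h as percent of control, DMSO set to 100% and a positive control to 0%. A time point counts as decreased when the signal drops significantly (2 sigma). The hit call is the authors' own, does not follow from the count of time points alone, and its rule is not shown.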

The chains behind the UniProt entries cited, without tags or fusion partners. Where a name states a change or a piece, a line headed by the entry shows the natural chain unless it says otherwise.
UniProt P21860, whole entry: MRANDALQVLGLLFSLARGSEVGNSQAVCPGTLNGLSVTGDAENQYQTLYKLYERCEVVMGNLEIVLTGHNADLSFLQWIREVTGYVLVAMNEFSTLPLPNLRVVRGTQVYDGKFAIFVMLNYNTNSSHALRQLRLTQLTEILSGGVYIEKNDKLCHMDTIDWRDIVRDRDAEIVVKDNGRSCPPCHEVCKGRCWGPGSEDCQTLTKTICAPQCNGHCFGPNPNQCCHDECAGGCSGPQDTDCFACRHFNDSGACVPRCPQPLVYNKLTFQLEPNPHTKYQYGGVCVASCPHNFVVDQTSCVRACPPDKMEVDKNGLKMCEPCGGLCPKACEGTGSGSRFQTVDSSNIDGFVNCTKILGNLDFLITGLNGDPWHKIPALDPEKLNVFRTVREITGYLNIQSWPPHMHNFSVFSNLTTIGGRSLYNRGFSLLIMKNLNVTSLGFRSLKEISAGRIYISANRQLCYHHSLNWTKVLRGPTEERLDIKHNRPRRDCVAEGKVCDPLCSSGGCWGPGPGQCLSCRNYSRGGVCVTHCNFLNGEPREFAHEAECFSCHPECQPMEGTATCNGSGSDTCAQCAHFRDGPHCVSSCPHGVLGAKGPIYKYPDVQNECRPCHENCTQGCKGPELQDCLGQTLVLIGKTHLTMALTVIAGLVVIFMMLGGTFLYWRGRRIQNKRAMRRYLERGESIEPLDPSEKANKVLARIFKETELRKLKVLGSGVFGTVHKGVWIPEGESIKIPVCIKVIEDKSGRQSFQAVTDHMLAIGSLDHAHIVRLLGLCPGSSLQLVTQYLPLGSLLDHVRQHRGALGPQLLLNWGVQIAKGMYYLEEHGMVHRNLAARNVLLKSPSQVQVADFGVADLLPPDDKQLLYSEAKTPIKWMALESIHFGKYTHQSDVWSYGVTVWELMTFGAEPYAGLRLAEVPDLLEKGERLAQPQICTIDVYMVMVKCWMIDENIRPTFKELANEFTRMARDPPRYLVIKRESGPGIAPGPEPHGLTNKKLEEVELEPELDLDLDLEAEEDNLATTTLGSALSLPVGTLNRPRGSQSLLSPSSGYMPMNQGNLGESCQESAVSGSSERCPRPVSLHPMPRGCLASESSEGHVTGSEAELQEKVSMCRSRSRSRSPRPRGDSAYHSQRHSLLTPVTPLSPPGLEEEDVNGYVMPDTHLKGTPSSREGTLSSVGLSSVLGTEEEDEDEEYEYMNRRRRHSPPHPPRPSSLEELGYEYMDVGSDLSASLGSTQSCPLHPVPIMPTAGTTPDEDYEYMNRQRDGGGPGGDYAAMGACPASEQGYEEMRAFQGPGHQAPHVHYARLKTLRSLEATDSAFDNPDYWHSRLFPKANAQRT
UniProt Q15303, whole entry R711C: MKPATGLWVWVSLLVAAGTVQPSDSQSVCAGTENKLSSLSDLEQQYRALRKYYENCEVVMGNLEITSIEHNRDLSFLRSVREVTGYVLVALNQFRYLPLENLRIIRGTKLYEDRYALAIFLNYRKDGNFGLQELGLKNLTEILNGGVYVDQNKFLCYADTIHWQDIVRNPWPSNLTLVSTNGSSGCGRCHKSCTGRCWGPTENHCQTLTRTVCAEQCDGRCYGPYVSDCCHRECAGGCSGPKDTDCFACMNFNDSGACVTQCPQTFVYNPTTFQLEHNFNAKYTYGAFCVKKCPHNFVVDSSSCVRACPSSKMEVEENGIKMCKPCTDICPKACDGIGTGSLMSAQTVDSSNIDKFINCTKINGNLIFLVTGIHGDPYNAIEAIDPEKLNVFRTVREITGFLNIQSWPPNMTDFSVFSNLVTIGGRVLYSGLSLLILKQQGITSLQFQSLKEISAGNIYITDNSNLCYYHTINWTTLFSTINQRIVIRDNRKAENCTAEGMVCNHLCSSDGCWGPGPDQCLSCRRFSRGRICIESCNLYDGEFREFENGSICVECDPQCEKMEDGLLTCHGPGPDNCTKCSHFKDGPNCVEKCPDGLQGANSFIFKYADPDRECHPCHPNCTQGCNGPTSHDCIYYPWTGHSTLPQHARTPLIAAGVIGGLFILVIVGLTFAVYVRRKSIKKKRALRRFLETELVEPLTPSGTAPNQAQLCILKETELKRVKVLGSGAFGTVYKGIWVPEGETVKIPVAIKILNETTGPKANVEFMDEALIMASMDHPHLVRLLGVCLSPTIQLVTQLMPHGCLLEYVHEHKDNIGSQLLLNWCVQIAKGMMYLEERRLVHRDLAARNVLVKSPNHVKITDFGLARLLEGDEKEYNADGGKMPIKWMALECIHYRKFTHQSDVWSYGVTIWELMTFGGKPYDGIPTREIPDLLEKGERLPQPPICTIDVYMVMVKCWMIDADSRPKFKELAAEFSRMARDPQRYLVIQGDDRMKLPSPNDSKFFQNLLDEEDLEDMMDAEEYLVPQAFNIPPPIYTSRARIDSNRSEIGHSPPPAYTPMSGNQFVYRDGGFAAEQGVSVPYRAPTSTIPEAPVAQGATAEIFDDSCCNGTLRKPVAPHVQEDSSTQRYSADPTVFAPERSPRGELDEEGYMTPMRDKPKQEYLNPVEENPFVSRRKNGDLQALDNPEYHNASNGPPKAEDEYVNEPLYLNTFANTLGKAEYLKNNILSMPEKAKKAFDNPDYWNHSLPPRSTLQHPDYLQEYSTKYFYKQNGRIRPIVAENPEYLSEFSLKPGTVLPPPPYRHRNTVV
UniProt O75460: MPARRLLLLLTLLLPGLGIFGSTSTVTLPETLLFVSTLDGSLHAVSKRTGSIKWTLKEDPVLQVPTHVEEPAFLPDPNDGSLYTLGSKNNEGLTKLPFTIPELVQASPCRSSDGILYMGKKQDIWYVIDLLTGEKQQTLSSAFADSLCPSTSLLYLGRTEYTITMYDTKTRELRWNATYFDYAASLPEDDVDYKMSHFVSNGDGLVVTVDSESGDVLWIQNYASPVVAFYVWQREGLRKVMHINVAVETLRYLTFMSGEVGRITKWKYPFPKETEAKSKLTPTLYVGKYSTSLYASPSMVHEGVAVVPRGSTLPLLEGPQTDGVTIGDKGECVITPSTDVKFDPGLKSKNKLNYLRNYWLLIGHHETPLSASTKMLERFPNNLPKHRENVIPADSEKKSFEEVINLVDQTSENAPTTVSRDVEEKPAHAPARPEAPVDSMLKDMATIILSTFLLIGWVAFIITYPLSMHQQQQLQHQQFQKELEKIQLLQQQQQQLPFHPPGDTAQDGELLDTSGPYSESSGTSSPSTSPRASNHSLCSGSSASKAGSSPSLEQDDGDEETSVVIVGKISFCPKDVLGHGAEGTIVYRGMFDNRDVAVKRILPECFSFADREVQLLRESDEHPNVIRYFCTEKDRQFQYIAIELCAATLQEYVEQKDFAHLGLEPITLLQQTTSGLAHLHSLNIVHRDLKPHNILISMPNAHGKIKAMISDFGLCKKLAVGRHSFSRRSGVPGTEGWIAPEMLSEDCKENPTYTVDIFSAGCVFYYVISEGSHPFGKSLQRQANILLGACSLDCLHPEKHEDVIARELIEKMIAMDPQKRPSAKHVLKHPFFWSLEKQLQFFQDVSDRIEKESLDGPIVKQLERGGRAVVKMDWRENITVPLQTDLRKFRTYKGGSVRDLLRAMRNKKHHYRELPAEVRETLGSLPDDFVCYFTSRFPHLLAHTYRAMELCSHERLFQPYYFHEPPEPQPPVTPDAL
UniProt P11362, whole entry, looked up: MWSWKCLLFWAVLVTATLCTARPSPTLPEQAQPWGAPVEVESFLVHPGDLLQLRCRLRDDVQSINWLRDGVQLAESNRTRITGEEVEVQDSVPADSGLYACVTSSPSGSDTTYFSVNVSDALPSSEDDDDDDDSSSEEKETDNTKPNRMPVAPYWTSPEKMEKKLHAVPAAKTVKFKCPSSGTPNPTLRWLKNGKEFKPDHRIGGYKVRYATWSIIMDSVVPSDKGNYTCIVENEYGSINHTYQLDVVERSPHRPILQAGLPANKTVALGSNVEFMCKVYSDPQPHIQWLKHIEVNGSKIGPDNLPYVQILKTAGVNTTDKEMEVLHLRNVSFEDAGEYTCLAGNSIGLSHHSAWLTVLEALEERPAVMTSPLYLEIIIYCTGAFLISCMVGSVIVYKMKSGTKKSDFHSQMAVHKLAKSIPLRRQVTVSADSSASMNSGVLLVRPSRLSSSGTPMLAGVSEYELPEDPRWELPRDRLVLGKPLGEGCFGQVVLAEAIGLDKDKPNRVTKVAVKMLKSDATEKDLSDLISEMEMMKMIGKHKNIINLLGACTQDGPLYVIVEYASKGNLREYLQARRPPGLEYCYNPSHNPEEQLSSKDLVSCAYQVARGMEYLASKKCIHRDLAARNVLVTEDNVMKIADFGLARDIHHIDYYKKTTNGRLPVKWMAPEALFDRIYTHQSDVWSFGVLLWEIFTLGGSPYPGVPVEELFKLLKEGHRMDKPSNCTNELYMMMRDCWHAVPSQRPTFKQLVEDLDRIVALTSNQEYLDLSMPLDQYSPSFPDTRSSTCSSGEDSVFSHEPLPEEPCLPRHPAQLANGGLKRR
UniProt P21802, whole entry, looked up: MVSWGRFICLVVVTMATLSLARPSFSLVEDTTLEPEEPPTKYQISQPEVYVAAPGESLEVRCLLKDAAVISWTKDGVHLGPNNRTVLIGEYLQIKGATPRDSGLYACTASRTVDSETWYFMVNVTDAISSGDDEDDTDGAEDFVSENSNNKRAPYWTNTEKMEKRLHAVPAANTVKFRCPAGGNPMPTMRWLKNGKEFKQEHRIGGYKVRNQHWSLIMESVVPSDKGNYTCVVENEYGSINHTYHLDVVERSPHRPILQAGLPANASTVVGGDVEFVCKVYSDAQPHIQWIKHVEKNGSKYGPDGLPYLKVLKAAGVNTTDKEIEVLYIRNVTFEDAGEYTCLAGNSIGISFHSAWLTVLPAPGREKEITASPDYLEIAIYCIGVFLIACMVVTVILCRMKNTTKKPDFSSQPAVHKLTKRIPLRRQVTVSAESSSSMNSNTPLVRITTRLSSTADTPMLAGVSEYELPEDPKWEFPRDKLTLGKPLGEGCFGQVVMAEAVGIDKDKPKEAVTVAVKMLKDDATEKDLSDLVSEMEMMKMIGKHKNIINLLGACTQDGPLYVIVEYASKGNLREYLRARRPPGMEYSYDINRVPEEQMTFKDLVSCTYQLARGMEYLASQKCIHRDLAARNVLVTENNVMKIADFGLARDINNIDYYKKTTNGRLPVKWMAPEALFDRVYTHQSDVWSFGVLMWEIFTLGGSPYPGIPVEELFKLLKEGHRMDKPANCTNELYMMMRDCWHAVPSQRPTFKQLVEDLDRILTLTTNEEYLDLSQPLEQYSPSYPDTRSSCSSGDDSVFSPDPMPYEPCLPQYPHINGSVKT
UniProt P22607, whole entry, looked up: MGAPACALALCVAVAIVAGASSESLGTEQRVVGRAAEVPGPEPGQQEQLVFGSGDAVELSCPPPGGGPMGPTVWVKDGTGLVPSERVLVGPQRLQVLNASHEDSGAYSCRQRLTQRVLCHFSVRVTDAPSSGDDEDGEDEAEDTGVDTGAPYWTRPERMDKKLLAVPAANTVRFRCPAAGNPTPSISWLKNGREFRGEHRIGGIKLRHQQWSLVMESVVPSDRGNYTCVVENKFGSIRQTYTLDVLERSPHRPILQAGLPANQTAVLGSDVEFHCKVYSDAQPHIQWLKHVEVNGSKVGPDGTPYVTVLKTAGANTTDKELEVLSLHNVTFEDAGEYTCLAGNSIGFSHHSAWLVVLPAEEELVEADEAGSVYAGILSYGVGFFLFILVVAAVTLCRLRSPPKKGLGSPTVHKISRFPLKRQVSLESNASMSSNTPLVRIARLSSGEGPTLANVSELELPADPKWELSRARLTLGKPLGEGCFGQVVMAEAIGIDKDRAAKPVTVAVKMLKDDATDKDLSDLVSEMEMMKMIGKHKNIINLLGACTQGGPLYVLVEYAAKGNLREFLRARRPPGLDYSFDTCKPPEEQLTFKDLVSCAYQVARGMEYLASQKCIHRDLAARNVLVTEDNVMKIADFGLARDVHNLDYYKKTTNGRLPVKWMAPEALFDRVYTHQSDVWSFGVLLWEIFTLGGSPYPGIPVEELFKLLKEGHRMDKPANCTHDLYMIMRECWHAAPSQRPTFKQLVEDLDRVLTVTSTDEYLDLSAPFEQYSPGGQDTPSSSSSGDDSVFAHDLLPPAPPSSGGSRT

Columns and labels:
Assay in all cases: number of time points (of 5) at which kinase-Nluc abundance scored as decreased, DMSO-normalised (count); higher = more persistent destabilization
Settings in all cases: K562; 2-18 h
EGFR_L861Q = EGFR_L861Q (UniProt P00533)
EGFR_T790M = EGFR_T790M (UniProt P00533)
EPHA2 = EPHA2 (UniProt P29317)
ERBB3 = ERBB3 (UniProt P21860)
[1] = biological target: ERBB4_R711C (clone: ERBB4_mut) (UniProt Q15303)
ERN1 = ERN1 (UniProt O75460)
FGFR1 = FGFR1 (UniProt P11362)
FGFR2 = FGFR2 (UniProt P21802)
FGFR3 = FGFR3 (UniProt P22607)
FGR = FGR (UniProt P09769)

Measured: number of time points

CC(=O)NCCc1c[nH]c2ccc(O)cc12 [N-Acetyl-5-hydroxytryptamine] (10 µM)
0: all assays above

N=C(N)NC(=N)NCCc1ccccc1 [Phenformin (hydrochloride)] (10 µM)
0: all assays above

COc1cc(N2CCC(N3CCN(C)CC3)CC2)ccc1Nc1nc2c(c(Nc3ccccc3S(=O)(=O)NC(C)C)n1)CCN2 [Conteltinib] (10 µM)
0: all assays above

Nc1cc(C(F)(F)F)c(-c2nc(N3CCOCC3)nc(N3CCOCC3)n2)cn1 [Bimiralisib] (10 µM)
2: EGFR_L861Q | FGFR2 | FGFR3
4: [1]
0: all other assays above

O=C1NC(=O)C(c2cn(-c3ccccc3)nc2-c2ccc(F)cc2)N1 (stereo not given) (10 µM)
0: all assays above

O=C(c1ccc(Nc2nccc(-c3cc4ccccc4s3)n2)cc1)N1CCC(N2CCCC2)CC1 (2.5 µM)
0: all assays above

CCOc1c([C@H](C)n2nc(C)c3c(N)ncnc32)cc(Cl)c(F)c1[C@@H]1CNC(=O)C1 [Parsaclisib (hydrochloride)] (10 µM)
0: all assays above

C[C@@H]1CCc2ncc(F)cc2[C@H]2CCCN2c2ccn3ncc(c3n2)C(=O)N1 [Selitrectinib] (10 µM)
0: all assays above

COC(=O)N[C@@H](C)CNc1nccc(-c2cn(C(C)C)nc2-c2cc(Cl)cc(NS(C)(=O)=O)c2F)n1 [Encorafenib] (10 µM)
0: all assays above

O=[N+]([O-])c1ccc(Sc2cccc[n+]2[O-])c2nonc12 (2.5 µM)
0: all assays above

C[C@H]1Cc2ccccc2N1C(=O)Cc1nc(N2CCOCC2)cc(=O)[nH]1 (2.5 µM)
0: all assays above

COc1ccc(CNc2nc(N(CCO)CCO)nc3c2ncn3C(C)C)cc1 (2.5 µM)
2: FGFR2
0: all other assays above

C[C@@H]1COCCN1c1cc(C2([S@](C)(=N)=O)CC2)nc(-c2cc[nH]c3nccc2-3)n1 [Ceralasertib] (2.5 µM)
0: all assays above

COc1ccc(-n2c(C)c([N+](=O)[O-])c3ccc(O)cc32)cc1 (10 µM)
0: all assays above

Cn1ncc(Cl)c1-c1cc(C(=O)N[C@H](CN)Cc2ccc(F)c(F)c2)sc1Cl (10 µM)
1: FGFR1
2: FGFR2
0: all other assays above

COc1c(C)c(C(=O)c2ccc(N)c(C(=O)O)c2)n2ccccc12 (10 µM)
0: all assays above

c1ccc(-c2nn3c(c2-c2ccnc4cc(OCCN5CCOCC5)ccc24)CCC3)nc1 (10 µM)
0: all assays above

CC(C)(C)c1cc(C(c2cc3c(cc2O)OCO3)N2CCOCC2)cc(C(C)(C)C)c1O (stereo not given) (2.5 µM)
0: all assays above

COC(=O)[C@@]1(C)CC[C@]2(C(=O)O)CC[C@]3(C)C(=CC[C@@H]4[C@@]5(C)C[C@H](O)[C@H](O[C@@H]6OC[C@@H](O[C@@H]7O[C@H](CO)[C@@H](O)[C@H](O)[C@H]7O)[C@H](O)[C@H]6O)[C@@](C)(CO)[C@@H]5CC[C@]43C)[C@@H]2C1 [Esculentoside A] (10 µM)
0: all assays above

CCCCCCCC/C=C\CCCCCCCC(=O)NCC(=O)O [N-Oleoyl glycine] (10 µM)
0: all assays above

O=C(O)c1ccc(N2N=C(Cc3ccccc3)C(=Cc3ccc(-c4ccccc4F)o3)C2=O)cc1 (10 µM)
0: all assays above

Cc1cnc(Nc2ccc(N3CCN(C)CC3)cc2)nc1Nc1cccc(S(=O)(=O)NC(C)(C)C)c1 (2.5 µM)
0: all assays above

CC(C)N(C)c1nc2cc(C(=O)O)ccc2nc1-c1ccc(F)cc1 (10 µM)
0: all assays above

N#C/C(=C\c1ccc2oc(=O)[nH]c2c1)C(=O)c1ccc(O)c(O)c1 (10 µM)
0: all assays above

Cn1cc(-c2ccc(F)c(C(F)(F)F)c2)nc1C1CCN(c2ncnc3[nH]ncc23)CC1 (10 µM)
0: all assays above

Ordered by formula weight (ascending): 3 of the compounds above.
N#C/C(=C\c1ccc2oc(=O)[nH]c2c1)C(=O)c1ccc(O)c(O)c1 (10 µM)
0: all assays above

Cn1cc(-c2ccc(F)c(C(F)(F)F)c2)nc1C1CCN(c2ncnc3[nH]ncc23)CC1 (10 µM)
0: all assays above

Cc1cnc(Nc2ccc(N3CCN(C)CC3)cc2)nc1Nc1cccc(S(=O)(=O)NC(C)(C)C)c1 (2.5 µM)
0: all assays above

The listing continues.

COc1cc(-c2cc(-c3cc(OC)c(OC)c(OC)c3)cc(C(F)P(=O)(OCOC(=O)C(C)(C)C)OCOC(=O)C(C)(C)C)c2)cc(OC)c1OC (stereo not given) [Stafia-1-dipivaloyloxymethyl ester] (2.5 µM)
0: all assays above

CCOC(=O)c1c2c3c(cccc3[nH]c1=O)C(=O)c1ccccc1-2 (10 µM)
0: all assays above

C=CC(=O)N1CCC(Oc2cc3c(Nc4ccc(Cl)c(Cl)c4F)ncnc3cc2OC)CC1 [Poziotinib] (2.5 µM)
0: all assays above

Oc1ccccc1C(=S)N1CCCC1 (10 µM)
0: all assays above

O=C1NC(=O)/C(=C/c2ccc(-c3ccc(F)cc3O)o2)S1 (10 µM)
0: all assays above

Nc1n[nH]c2cc(-c3ccc(=O)n(Cc4cccc(Cl)c4)c3)ccc12 (10 µM)
0: all assays above

CC[C@H](C)[C@H](NC(=O)[C@H](CCC(=O)O)NC(=O)[C@H](CCCN=C(N)N)NC(=O)[C@H](CCCN=C(N)N)NC(=O)[C@@H](N)CCCCN)C(=O)N[C@@H](CC(C)C)C(=O)N[C@@H](CO)C(=O)N[C@@H](CCCN=C(N)N)C(=O)N[C@@H](CCCN=C(N)N)C(=O)N1CCC[C@H]1C(=O)N[C@@H](CO)C(=O)N[C@@H](Cc1ccc(O)cc1)C(=O)N[C@@H](CCCN=C(N)N)C(=O)O [CREBtide] (10 µM)
0: all assays above

NC(=O)c1ccc(-c2cnn3ccc(NCc4cccnc4)nc23)cc1 (2.5 µM)
0: all assays above

C=CS(=O)(=O)c1ccc(Nc2nc(OCC3CCCCC3)c3[nH]cnc3n2)cc1 (2.5 µM)
0: all assays above

O=C(O)c1cc(O)c2c(c1)[C@@H]([C@H]1c3cc(C(=O)O)cc(O)c3C(=O)c3c(O[C@@H]4O[C@H](CO)[C@@H](O)[C@H](O)[C@H]4O)cccc31)c1cccc(O[C@@H]3O[C@H](CO)[C@@H](O)[C@H](O)[C@H]3O)c1C2=O [Sennoside B] (2.5 µM)
0: all assays above

CC(CCc1ccccn1)(CCc1ccccn1)C(=O)c1ccccc1 (10 µM)
0: all assays above
